Assay [1] deals with human cadherin-17 (CDH17), endogenously expressed on human cancer cell lines (LS513, SNU-C1, PaTu8988s, HPAF-II) (human) (UniProt Q12864). Kind of assay: indirect flow cytometry (iQue), anti-His secondary antibody. In general terms: Flow cytometry measures light scatter and fluorescence of single cells or particles in a stream.
The target is the same in assay [2]. Put plainly: indirect flow cytometry (iQue) on LS513 cells (CDH17+), anti-His secondary antibody.

Protein sequences, listed by entry. Tags and fused reporters are not part of them. Lines headed by an entry give the natural chain unless they say otherwise; changes in a name come on top.
UniProt Q12864: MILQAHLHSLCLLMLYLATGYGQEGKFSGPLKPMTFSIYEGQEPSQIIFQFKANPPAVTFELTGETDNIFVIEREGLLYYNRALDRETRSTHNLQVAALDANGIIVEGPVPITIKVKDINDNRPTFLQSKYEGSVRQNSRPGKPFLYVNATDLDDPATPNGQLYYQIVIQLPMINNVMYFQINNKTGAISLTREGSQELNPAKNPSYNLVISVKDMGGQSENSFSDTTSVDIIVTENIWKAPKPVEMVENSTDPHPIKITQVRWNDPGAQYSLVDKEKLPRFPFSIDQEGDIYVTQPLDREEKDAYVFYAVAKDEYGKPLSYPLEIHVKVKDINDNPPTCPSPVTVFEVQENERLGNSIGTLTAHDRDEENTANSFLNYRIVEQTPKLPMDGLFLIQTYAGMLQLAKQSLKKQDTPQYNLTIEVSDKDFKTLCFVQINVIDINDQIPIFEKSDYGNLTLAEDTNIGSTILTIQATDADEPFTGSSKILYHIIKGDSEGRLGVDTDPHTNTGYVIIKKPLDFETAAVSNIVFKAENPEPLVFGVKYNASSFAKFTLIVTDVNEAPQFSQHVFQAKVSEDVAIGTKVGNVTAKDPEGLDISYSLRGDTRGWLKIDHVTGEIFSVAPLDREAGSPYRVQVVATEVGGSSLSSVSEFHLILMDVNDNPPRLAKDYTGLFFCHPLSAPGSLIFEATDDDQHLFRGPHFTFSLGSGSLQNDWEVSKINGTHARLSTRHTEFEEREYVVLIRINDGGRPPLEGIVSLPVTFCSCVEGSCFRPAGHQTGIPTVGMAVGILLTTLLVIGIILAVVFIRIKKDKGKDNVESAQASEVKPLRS

These are yes or no findings as the source states them, for the method shown. Some binding calls cover weakened binding; strength is not graded here.

B1: 07-0653-h43scFv anti-CDH17 scFv (scFv)
scFv: DIQLTQSPSSLSASVGDRVTITCRATSSLSYIHWYQQKPGKAPKPLIYEISKLASGVPSRFSGSGSGTDYTLTISSLQPEDFATYYCQQWNYPFTFGQGTKLEIKGGGGSGGGGSGGGGSQVQLVQSGAEVKKPGASVKVSCKASGYTFTDYYMNWVRQAPGQGLEWMGVIYPYSGGIGYAQKFQGRVTMTVDKSTSTAYMELSSLRSEDTAVYYCARGRGDYFGLFDFWGQGTTVTVSSHHHHHH
As for B1, the binding entry in assay [1] and in assay [2] was “binds” in each case.

The values are drawn from patent US20250051437A1.
